Results as given in PubChem BioAssay AID328 (DTP/NCI, 2004).
The list is a part of this screen's results and no random one: it is rich in T/C values a quarter to a half above the control, in often repeated tests (any T/C) and in doses without a T/C. Further doses and runs are listed elsewhere. T/C is the treated group as % of the vehicle group. Some entries give survivors of the animals treated and no T/C: the source files T/C as zero there, which appears to mark a toxic dose or a test without result, not a measured value. Some survivor counts are full or nearly so, which does not show that the dose was tolerated: survival well below the control is almost never listed, so the zero probably covers shortened survival too. Survivors were counted at the toxicity check, usually on the fifth day, unless a day is given; later deaths do not show. Schedules are NCI's codes, read here as Q, the interval in days (D) or hours (H), X, the number of doses. Some entries hold several experiments; their values stand side by side, smallest first. Where survival is the endpoint, this PubChem deposit counts one and a half times the control or more as active, and values a quarter to a half above the control carry no call in these data; other NCI protocols may use other cut-offs. Some T/C values carry the count of animals alive at the toxicity check (mostly the fifth day); without a count, all were alive then.

Tested on: BDF1 mice, P388 leukemia ip, median survival T/C
Experiment: NCI In Vivo Anticancer Drug Screen. Data for tumor model P388 Leukemia (intraperitoneal) in B6D2F1 (BDF1) mice
Conditions: T/C endpoint: median survival time, higher T/C = longer survival
In short: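 Antitumour effect was judged in vivo: survival in drug-treated mice, normalised to that of vehicle-dosed controls, gives the reported T/C.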

[1] = dose: 400.0 mg/kg/injection, schedule: Q01DX009 (ip), vehicle: Klucel (hydroxypropylcellulose) (HPC)
[2] = dose: 50.0 mg/kg/injection, schedule: Q04DX003 (ip), vehicle: saline with Tween-80
[3] = dose: 21.0 mg/kg/injection, schedule: Q04DX003 (ip), vehicle: saline
[4] = dose: 0.93 mg/kg/injection, schedule: Q01DX009 (ip), vehicle: saline
[5] = dose: 5.6 mg/kg/injection, schedule: Q04DX003 (ip), vehicle: saline

## C[C@@H]1C[C@@H]([C@H](O)CC2CC(=O)NC(=O)C2)C(=O)[C@@H](C)C1
dose: 5.0 mg/kg/injection, schedule: Q01DX010 (ip), vehicle: saline
  survivor count: 6 of 6
dose: 10.0 mg/kg/injection, schedule: Q01DX010 (ip), vehicle: saline
  survivor count: 6 of 6
dose: 30.0 mg/kg/injection, schedule: Q04DX003 (ip), vehicle: Klucel (hydroxypropylcellulose) (HPC)
  survivor count: 6 of 10
dose: 40.0 mg/kg/injection, schedule: Q01DX010 (ip), vehicle: saline
  T/C: 128 % of control
dose: 90.0 mg/kg/injection, schedule: Q01DX010 (ip), vehicle: saline
  survivor count: 6 of 6
dose: 120.0 mg/kg/injection, schedule: Q01DX009 (ip), vehicle: Klucel (hydroxypropylcellulose) (HPC)
  survivor count: 6 of 10
dose: 135.0 mg/kg/injection, schedule: Q01DX010 (ip), vehicle: saline
  survivor count: 5 of 6
dose: 180.0 mg/kg/injection, schedule: Q04DX003 (sc), vehicle: Klucel (hydroxypropylcellulose) (HPC)
  survivor count: 8 of 8
dose: 240.0 mg/kg/injection, schedule: Q04DX003 (ip), vehicle: Klucel (hydroxypropylcellulose) (HPC)
  survivor count: 7 of 10
dose: 300.0 mg/kg/injection, schedule: Q04DX003 (ip), vehicle: other
  survivor count: 0 of 6
dose: 300.0 mg/kg/injection, schedule: Q04DX003 (sc), vehicle: Klucel (hydroxypropylcellulose) (HPC)
  survivor count: 7 of 8
dose: 400.0 mg/kg/injection, schedule: Q04DX003 (ip), vehicle: other
  survivor count: 0 of 6
dose: 500.0 mg/kg/injection, schedule: Q01DX001 (ip), vehicle: Klucel (hydroxypropylcellulose) (HPC)
  survivor count: 5 of 8
dose: 500.0 mg/kg/injection, schedule: Q01DX001 (sc), vehicle: Klucel (hydroxypropylcellulose) (HPC)
  survivor count: 3 of 8

## COc1cc2cc3c4cc(OC)c(OC)cc4cc[n+]3c(CCC(=O)O)c2cc1OC (tested in a mixture with another compound)
[1]
  survivor count: 1 of 3

## Cc1cccc(C)c1NC(=O)N(CCCl)N=O
[2]
  T/C: 127 % of control
dose: 100.0 mg/kg/injection, schedule: Q01DX009 (ip), vehicle: saline sonified
  survivor count: 5 of 6
dose: 200.0 mg/kg/injection, schedule: Q01DX009 (ip), vehicle: saline sonified
  survivor count: 0 of 6
dose: 400.0 mg/kg/injection, schedule: Q01DX009 (ip), vehicle: saline sonified
  survivor count: 0 of 6

## Nc1nc(-c2ccccc2N=NN2CCN(N=Nc3ccccc3-c3nc(N)c4ccccc4n3)CC2)nc2ccccc12
dose: 3.12 mg/kg/injection, schedule: Q01DX009 (ip), vehicle: Klucel (hydroxypropylcellulose) (HPC)
  T/C: 125 % of control

## O=C(C=C(C(F)(F)F)C(F)(F)F)c1ccccc1Cl
dose: 37.5 mg/kg/injection, schedule: Q01DX009 (ip), vehicle: saline with Tween-80
  survivor count: 1 of 6

## CC(=O)Nc1cc(N(CCOS(C)(=O)=O)CCOS(C)(=O)=O)ccc1N=O
dose: 0.62 mg/kg/injection, schedule: Q01DX009 (ip), vehicle: saline
  survivor count: 5 of 6
dose: 1.25 mg/kg/injection, schedule: Q01DX009 (ip), vehicle: saline
  survivor count: 4 of 6
dose: 2.5 mg/kg/injection, schedule: Q01DX009 (ip), vehicle: saline
  survivor count: 3 of 6
dose: 2.5 mg/kg/injection, schedule: Q04DX003 (ip), vehicle: saline with Tween-80
  T/C: 133 % of control
dose: 3.75 mg/kg/injection, schedule: Q04DX003 (ip), vehicle: saline with Tween-80
  T/C: 129 % of control

## COc1ccc(OC)c(NC(=O)NC(c2ccccc2)c2ccccc2)c1
dose: 25.0 mg/kg/injection, schedule: Q01DX009 (ip), vehicle: Klucel (hydroxypropylcellulose) (HPC)
  survivor count: 6 of 6
dose: 50.0 mg/kg/injection, schedule: Q01DX009 (ip), vehicle: Klucel (hydroxypropylcellulose) (HPC)
  survivor count: 6 of 6

## Cc1ccc2c(Br)cc(Br)c(O)c2n1
dose: 200.0 mg/kg/injection, schedule: Q01DX009 (ip), vehicle: Klucel (hydroxypropylcellulose) (HPC)
  survivor count: 3 of 6
[1]
  survivor count: 0 of 6

## O=CN(O)CC(=O)O.[Ni]
dose: 4.6 mg/kg/injection, schedule: Q01DX001 (ip), vehicle: saline
  survivor count: 6 of 6
dose: 12.5 mg/kg/injection, schedule: Q01DX009 (ip), vehicle: saline
  survivor count: 4 of 6
dose: 13.0 mg/kg/injection, schedule: Q04DX003 (ip), vehicle: saline
  survivor count: 3 of 6
[3]
  T/C: 127 % of control
  survivor count: 3 of 6
dose: 30.0 mg/kg/injection, schedule: Q04DX003 (ip), vehicle: saline
  survivor count: 0 of 6
dose: 45.0 mg/kg/injection, schedule: Q01DX001 (ip), vehicle: saline
  survivor count: 1 of 6
dose: 70.0 mg/kg/injection, schedule: Q01DX001 (ip), vehicle: saline
  survivor count: 0 of 6
dose: 105.0 mg/kg/injection, schedule: Q01DX001 (ip), vehicle: saline
  survivor count: 0 of 6

## NCCCC(NC(=O)CCCCCCCCN=C(N)N)C(O)CCCCCCCCN=C(N)N (stereo not given)
dose: 1.88 mg/kg/injection, schedule: Q01DX010 (ip), vehicle: saline
  survivor count: 6 of 6
dose: 7.5 mg/kg/injection, schedule: Q01DX010 (ip), vehicle: saline
  survivor count: 6 of 6
dose: 15.0 mg/kg/injection, schedule: Q01DX010 (ip), vehicle: saline
  survivor count: 0 of 6

## COc1cccc2c1cc([N+](=O)[O-])c1c(C(=O)O)cc3c(c12)OCO3
dose: 10.0 mg/kg/injection, schedule: Q01DX010 (ip), vehicle: other
  survivor count: 6 of 6

## CCCC(=O)Oc1ccc(/C=N/NC(N)=S)nc1
dose: 225.0 mg/kg/injection, schedule: Q01DX009 (ip), vehicle: saline with Tween-80
  survivor count: 6 of 6
dose: 400.0 mg/kg/injection, schedule: Q01DX009 (ip), vehicle: saline with Tween-80
  survivor count: 6 of 6
dose: 600.0 mg/kg/injection, schedule: Q01DX009 (ip), vehicle: saline with Tween-80
  survivor count: 6 of 6

## COc1cc(OC)c(N=Cc2ccc3c(c2)OCO3)cc1Cl
dose: 400.0 mg/kg/injection, schedule: Q04DX003 (ip), vehicle: Klucel (hydroxypropylcellulose) (HPC)
  survivor count: 6 of 6

## O=C(O)c1ccc(-c2ccccc2)cc1
dose: 400.0 mg/kg/injection, schedule: Q04DX003 (ip), vehicle: saline with Tween-80
  survivor count: 2 of 6

## Cc1ccc([N+](=O)[O-])cc1N=C=O
dose: 200.0 mg/kg/injection, schedule: Q04DX003 (ip), vehicle: Klucel (hydroxypropylcellulose) (HPC)
  survivor count: 6 of 6

## O=C1C=CC(=O)N1
dose: 0.61 mg/kg/injection, schedule: Q01DX009 (ip), vehicle: saline
  survivor count: 5 of 6
[4]
  T/C: 131 % of control
  survivor count: 3 of 6
dose: 1.39 mg/kg/injection, schedule: Q01DX009 (ip), vehicle: saline
  survivor count: 0 of 6
dose: 1.87 mg/kg/injection, schedule: Q01DX009 (ip), vehicle: saline
  T/C: 126 % of control
dose: 3.7 mg/kg/injection, schedule: Q04DX003 (ip), vehicle: saline
  survivor count: 2 of 6
dose: 3.74 mg/kg/injection, schedule: Q01DX009 (ip), vehicle: saline
  T/C: 126 % of control [5 of 6 alive]
[5]
  T/C: 140 % of control
  survivor count: 1 of 6 and 2 of 6
dose: 8.4 mg/kg/injection, schedule: Q04DX003 (ip), vehicle: saline
  survivor count: 0 of 6 and 1 of 6
dose: 12.0 mg/kg/injection, schedule: Q04DX003 (ip), vehicle: saline
  survivor count: 1 of 6

## C=CC(OC(C)=O)OC(C)=O
dose: 12.0 mg/kg/injection, schedule: Q01DX009 (ip), vehicle: saline with Tween-80
  T/C: 125 % of control
dose: 25.0 mg/kg/injection, schedule: Q01DX009 (ip), vehicle: saline with Tween-80
  survivor count: 6 of 6
[2]
  survivor count: 0 of 6

## COc1ccc2c(c1)N(C)CCCC2=O
dose: 300.0 mg/kg/injection, schedule: Q01DX009 (ip), vehicle: saline
  survivor count: 2 of 6
dose: 400.0 mg/kg/injection, schedule: Q04DX003 (ip), vehicle: saline
  survivor count: 2 of 6
